Test results from PubChem BioAssay AID445 (National Center for Advancing Translational Sciences (NCATS), 2006).
The list shows a part of the results. Shown are side measurements of this screen, not its main read-out; they come without a call. Most of these compounds were active or inconclusive in the main read-out, so they are no random draw. Words in brackets tell the shape of the fitted curve; partial curves, single points and poor fits give uncertain potencies.

Test: IkB Signaling
Conditions: ABC-DLBCL IkBa-CBG/CBR dual luciferase ratio (green luciferase fused to IkBa over red control in OCI-Ly3 lymphoma cells), 4 h
Outline: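 Curves were fitted separately to fusion (green), unfused (red) and ratio luminescence, then classed by r2, magnitude and activity. Cells: OCI-Ly3, 4 h compound plus doxycycline at 37C; 10 uM MG-132 defined full response.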

[1] = measured here: control luc red channel unless noted
[2] = measured here: IkB-luc green channel
[3] = measured here: control luc red channel

CCOc1ccc(S(=O)(=O)Nc2ccc3c(c2)CCCN3S(=O)(=O)c2ccc(C)cc2)cc1
AC50 [1]: 15.8 µM [falling, partial curve]

Cc1cccc(Nc2nnc(-c3ccc(C)c(S(=O)(=O)N4CCOCC4)c3)c3ccccc23)c1
AC50 [1]: 25.1 µM [falling, partial curve, poor fit]

CCCCN(C(=O)CCn1c(=O)oc2ccccc21)c1ccccc1
AC50 [1]: 25.1 µM [falling, single point]

CCOc1ccc(-c2cc(CCCC(=O)NCCc3ccc(SC)cc3)no2)cc1
AC50 [1]: 0.501 µM [falling, full curve]

Cc1ccc(-c2noc(CCC(=O)Nc3cccc(C#N)c3)n2)cc1
AC50 [1]: 15.8 µM [falling, partial curve]

COc1cc(NC(=O)c2noc3c2CC(C(C)(C)C)CC3)cc(OC)c1OC (centres undefined)
AC50 [1]: 31.6 µM [falling, single point]

CCN(CC)C(=O)c1sc2c(c1C)c(=O)n(Cc1ccccc1)c(=O)n2Cc1c(C)cc(C)cc1C
AC50 [1]: 10 µM [falling, partial curve]

Cc1cc2c(cc(C(=O)OC(C(=O)NCc3ccco3)C(C)C)n2C)o1 (centres undefined)
AC50 [1]: 25.1 µM [falling, partial curve]

CCOC(=O)c1ccc(NC(=O)c2c(NCc3ccc(OC)c(OC)c3OC)sc3c2CCC(C)C3)cc1 (centres undefined)
AC50 [1]: 15.8 µM [falling, partial curve]

Cc1ccc(NC(=O)CN2C(=O)c3ccccc3Sc3ccc(C(=O)N4CCOCC4)cc32)c(Cl)c1
AC50 [1]: 20 µM [falling, single point]

c1nc2sc3c(c2c2nnnn12)CCC3
AC50 [1]: 15.8 µM [falling, partial curve]

Cc1conc1NC(c1cccs1)c1ccc2cccnc2c1O (centres undefined)
AC50 [2]: 3.98 µM [rising, partial curve] | AC50 [3]: 12.6 µM [falling, partial curve]

C=CC(=O)OCCCCCCOC(=O)C=C
AC50 [2]: 12.6 µM [rising, partial curve] | AC50 [3]: 12.6 µM [falling, full curve]

CN1C(=O)C(CC(=O)Nc2ccc3c(c2)Cc2ccccc2-3)N(C)C1=O (centres undefined)
AC50 [1]: 0.398 µM [rising, partial curve, poor fit]

COc1ccc(OC)c(NC(=O)Nc2cccc(Cn3cccn3)c2)c1
AC50 [1]: 15.8 µM [falling, partial curve]

CCOc1ccccc1NC(=O)Nc1cc2c(cc1N1CCCCC1)n(CC)c(=O)n2CC
AC50 [1]: 3.16 µM [falling, single point]

CCOc1ccccc1CNCc1c(C(=O)O)n(Cc2ccc(F)cc2)c2cc(C)ccc12
AC50 [1]: 1.58 µM [rising, partial curve, poor fit]

Cc1ccc(C)c(S(=O)(=O)Nc2ccccc2C(=O)Nc2cc(C)on2)c1
AC50 [1]: 6.31 µM [falling, partial curve]

Cc1ccc(-c2noc(-c3cc(-c4ccc(F)cc4)n[nH]3)n2)cc1
AC50 [1]: 15.8 µM [rising, partial curve]

O=C(Nc1c(-c2ccccc2)nc2ccccn12)c1ccccc1F
AC50 [1]: 12.6 µM [falling, partial curve]

Cc1cc(C)cc(NC(=O)CNS(=O)(=O)c2ccc3nc(C)sc3c2)c1
AC50 [1]: 12.6 µM [falling, single point]

O=S(=O)(c1ccc(-c2csc(=Nc3ccc(OC(F)(F)Cl)cc3)n2CCCO)cc1)N1CCCC1
AC50 [1]: 6.31 µM [falling, partial curve]

Cc1ccsc1C1C=C(c2cccc(Br)c2)Nc2ncnn21 (centres undefined)
AC50 [1]: 12.6 µM [falling, partial curve]

COc1ccc(CCNC(=O)c2cc(-c3ccccc3OC)on2)cc1OC
AC50 [1]: 0.251 µM [falling, full curve]

Cc1ccc(C2C(C#N)=C(N)Oc3cc4c(cc32)OCO4)cc1 (centres undefined)
AC50 [1]: 25.1 µM [falling, single point]

CCOc1ccc(-c2nnc(SCC(=O)c3ccccc3)n2-c2ccccc2)cc1
AC50 [1]: 3.98 µM [falling, full curve]

Cn1cccc1-c1cc2n(n1)CCC(=O)N2CCCC(=O)NCc1ccc(F)cc1
AC50 [1]: 1.58 µM [falling, full curve, poor fit]

Cc1cc(=O)[nH]c2nnc(SCc3ccc(C(F)(F)F)cc3)n12
AC50 [1]: 3.98 µM [rising, partial curve]

Cc1ccc(NC(=O)c2ncoc2-c2ccco2)cc1Cl
AC50 [1]: 3.16 µM [rising, single point]

COc1ccc2cc(CNc3ccc(OC)c(OC)c3)c(=O)n(CC(=O)Nc3ccccc3F)c2c1
AC50 [1]: 15.8 µM [falling, partial curve]

CCOC(=O)c1[nH]c(C)c(CCC(=O)Nc2cccc(SC)c2)c1C
AC50 [1]: 15.8 µM [falling, partial curve, poor fit]

COc1cccc(NS(=O)(=O)c2ccc3[nH]cc(C(=O)NC4CC4)c(=O)c3c2)c1
AC50 [1]: 10 µM [falling, partial curve]

CCOc1ccc(OCC)c(NC(=O)CCc2nc3cccnc3n2Cc2cccs2)c1
AC50 [1]: 25.1 µM [falling, single point]

COc1ccc(-c2nc(C)c(CCNC(=O)c3c(F)cccc3F)s2)cc1
AC50 [1]: 39.8 µM [falling, single point]

COC(=O)N1CCCc2cc(S(=O)(=O)N3CCN(c4ccccc4)CC3)ccc21
AC50 [1]: 10 µM [falling, partial curve, poor fit]

COc1cc(Cl)c(C)cc1NC(=O)CSc1nc2c(c(=O)[nH]1)CCCC2
AC50 [1]: 20 µM [falling, single point]

COc1cc(OC)c(NC(=O)n2ncc3cc(Cl)ccc32)cc1Cl
AC50 [1]: 39.8 µM [falling, single point]

COc1ccc(C2CC(=O)c3c([nH]c(C(=O)OC4CCCCCC4)c3C)C2)cc1 (centres undefined)
AC50 [1]: 20 µM [falling, partial curve, poor fit]

COc1ccc(OC)c(NC(=O)CSC2=Nc3ccccc3C3=NC(CC(=O)NCc4ccc(F)cc4)C(=O)N23)c1 (centres undefined)
AC50 [1]: 3.98 µM [falling, single point]

O=C(Nc1ccccc1O)c1cc(S(=O)(=O)N2CCCC2)ccc1Cl
AC50 [1]: 20 µM [falling, single point]

COc1ccc2c(c1)c1c(c(=O)n(-c3ccc(OC)c(OC)c3)c(=O)n1CC(=O)N1CCCC1)n2C
AC50 [1]: 0.126 µM [rising, full curve]

Cc1ccc(CNC(=O)CSc2ncc(S(=O)(=O)c3ccc(C)c(Cl)c3)c(=O)[nH]2)cc1
AC50 [1]: 15.8 µM [falling, partial curve]

O=C(Nc1ccc2[nH]c(=O)c(=O)[nH]c2c1)c1cccc(F)c1
AC50 [1]: 0.0316 µM [rising, full curve]

Cc1nc2nc(SCC(=O)NCCc3ccc(Cl)cc3)nn2c(C)c1Cc1ccccc1Cl
AC50 [1]: 25.1 µM [falling, single point]

Cc1ccccc1C1=CCN(c2ncc(NC(=O)c3ccc(Cl)cc3)cc2C(=O)O)CC1
AC50 [1]: 5.01 µM [falling, partial curve, poor fit]

Cc1nc2c(-c3ccccc3)c(C)nn2c(C)c1CCC(=O)Nc1ccccc1F
AC50 [1]: 31.6 µM [falling, partial curve]

CCOc1ccc(NC(=O)c2sc3ccccc3c2Cl)cc1
AC50 [1]: 0.0794 µM [rising, full curve, poor fit]

COc1ccc(C2CC(=O)Nc3c2c(=O)n(C)c2nc4ccccc4n32)cc1 (centres undefined)
AC50 [1]: 3.98 µM [rising, single point]

CS(=O)(=O)n1nc(-c2ccco2)nc1NCc1ccccc1Cl
AC50 [1]: 15.8 µM [falling, partial curve, poor fit]

COc1ccc(C(=O)c2cn(Cc3cccc(C)c3)c3cc4c(cc3c2=O)OCO4)cc1
AC50 [1]: 31.6 µM [falling, partial curve]

CCOC(=O)c1[nH]c(C)c(C(=O)NCc2cccc(OC)c2)c1C
AC50 [1]: 7.94 µM [falling, partial curve]

COC(=O)Cc1cc(=O)[nH]c(Nc2nc3ccccc3o2)n1
AC50 [1]: 7.94 µM [falling, full curve]

COc1cccc(-c2nc(CS(=O)(=O)CC(=O)NCCCN3CCc4ccccc4C3)c(C)o2)c1
AC50 [1]: 10 µM [falling, partial curve]

Cc1ccc(NS(=O)(=O)c2ccc3c(c2)[C@H]2C=CC[C@H]2[C@@H](c2ccc(F)cc2)N3)cc1C
AC50 [1]: 15.8 µM [falling, partial curve]

Cn1c(=O)c2c(SCC(=O)NCc3ccc(F)cc3)nc(-c3ccccc3Cl)nc2n(C)c1=O
AC50 [1]: 6.31 µM [falling, partial curve]

O=C(CSC1=NCCS1)Nc1ccnc2ccccc12
AC50 [1]: 2.51 µM [falling, full curve]

COc1ccc(CCNC(=O)C2CCCN(Cc3nc(-c4ccccc4C)oc3C)C2)cc1OC (centres undefined)
AC50 [1]: 10 µM [falling, partial curve]

COc1cc(NC(=O)CCS(=O)(=O)c2nc(-c3ccc4c(c3)OCO4)cc(C(F)(F)F)n2)cc(OC)c1OC
AC50 [1]: 10 µM [falling, partial curve]

COCCCN1C(=O)c2[nH]nc(-c3ccccc3O)c2C1c1ccc(OCc2ccccc2)cc1 (centres undefined)
AC50 [1]: 10 µM [falling, partial curve]

C1=C(N2CCOCC2)/C(=C/c2nc3ccccc3[nH]2)CC1
AC50 [1]: 6.31 µM [falling, partial curve]

CCCCNC(=O)C1CCC(CNS(=O)(=O)c2ccc(C)cc2)CC1 (centres undefined)
AC50 [1]: 3.98 µM [rising, single point]

Cc1nc(NC(=O)c2c(-c3ccccc3)c(-c3ccccc3)nn(C)c2=O)sc1C
AC50 [1]: 3.16 µM [falling, single point]
